Measurements taken from the supplement of paper PMC8728848.
The other results are listed elsewhere or left out.

Key:
Experiment in all cases: glycan array binding signal (z-score within array); higher = stronger binding
Conditions in all cases: glycan notation: IUPAC condensed, linker removed; mutation: D224N
[1] = biological target: GlcNAc(b1-3)Gal(b1-3)GalNAc
Outline: (§1)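 Glycan array data were curated from 3228 arrays in the Consortium for Functional Glycomics database and kept only where the protein sequence was available. Glycan names were converted to IUPAC-condensed notation, and columns mapping to the same glycan were averaged. The binding signal is a within-array Z-score, averaged across arrays of the same protein sequence at different concentrations or buffers and across linkers. Negative Z-scores can be read as non-binding.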

GlcNAc(b1-3)Gal(b1-4)Glc = biological target: GlcNAc(b1-3)Gal(b1-4)Glc
Outline: as §1

[2] = biological target: GlcNAc(b1-3)Gal(b1-4)GlcNAc
Outline: as §1

[3] = biological target: GlcNAc(b1-3)Gal(b1-4)GlcNAc(b1-2)Man(a1-3)[GlcNAc(b1-3)Gal(b1-4)GlcNAc(b1-2)Man(a1-6)]Man(b1-4)GlcNAc(b1-4)GlcNAc
Outline: as §1

[4] = biological target: GlcNAc(b1-3)Gal(b1-4)GlcNAc(b1-2)Man(a1-3)[GlcNAc(b1-3)Gal(b1-4)GlcNAc(b1-2)Man(a1-6)]Man(b1-4)GlcNAc(b1-4)[Fuc(a1-6)]GlcNAc
Outline: as §1

[5] = biological target: GlcNAc(b1-3)Gal(b1-4)GlcNAc(b1-2)[GlcNAc(b1-3)Gal(b1-4)GlcNAc(b1-6)]Man(a1-6)[GlcNAc(b1-3)Gal(b1-4)GlcNAc(b1-2)Man(a1-3)]Man(b1-4)GlcNAc(b1-4)GlcNAc
Outline: as §1

[6] = biological target: GlcNAc(b1-3)Gal(b1-4)GlcNAc(b1-3)Gal(b1-4)GlcNAc
Outline: as §1

[7] = biological target: GlcNAc(b1-3)Gal(b1-4)GlcNAc(b1-3)Gal(b1-4)GlcNAc(b1-2)Man(a1-3)[GlcNAc(b1-3)Gal(b1-4)GlcNAc(b1-3)Gal(b1-4)GlcNAc(b1-2)Man(a1-6)]Man(b1-4)GlcNAc(b1-4)GlcNAc
Outline: as §1

[8] = biological target: GlcNAc(b1-3)Gal(b1-4)GlcNAc(b1-3)Gal(b1-4)GlcNAc(b1-2)Man(a1-3)[GlcNAc(b1-3)Gal(b1-4)GlcNAc(b1-3)Gal(b1-4)GlcNAc(b1-2)Man(a1-6)]Man(b1-4)GlcNAc(b1-4)[Fuc(a1-6)]GlcNAc
Outline: as §1

[9] = biological target: GlcNAc(b1-3)Gal(b1-4)GlcNAc(b1-3)Gal(b1-4)GlcNAc(b1-2)[GlcNAc(b1-3)Gal(b1-4)GlcNAc(b1-3)Gal(b1-4)GlcNAc(b1-6)]Man(a1-6)[GlcNAc(b1-3)Gal(b1-4)GlcNAc(b1-3)Gal(b1-4)GlcNAc(b1-2)Man(a1-3)]Man(b1-4)GlcNAc(b1-4)[Fuc(a1-6)]GlcNAc
Outline: as §1

[10] = biological target: GlcNAc(b1-3)Gal(b1-4)GlcNAc(b1-3)Gal(b1-4)GlcNAc(b1-3)Gal(b1-4)GlcNAc(b1-2)Man(a1-3)[GlcNAc(b1-3)Gal(b1-4)GlcNAc(b1-3)Gal(b1-4)GlcNAc(b1-3)Gal(b1-4)GlcNAc(b1-2)Man(a1-6)]Man(b1-4)GlcNAc(b1-4)GlcNAc
Outline: as §1

[11] = biological target: GlcNAc(b1-3)Gal(b1-4)GlcNAc(b1-3)Gal(b1-4)GlcNAc(b1-3)Gal(b1-4)GlcNAc(b1-2)Man(a1-3)[GlcNAc(b1-3)Gal(b1-4)GlcNAc(b1-3)Gal(b1-4)GlcNAc(b1-3)Gal(b1-4)GlcNAc(b1-2)Man(a1-6)]Man(b1-4)GlcNAc(b1-4)[Fuc(a1-6)]GlcNAc
Outline: as §1

[12] = biological target: GlcNAc(b1-3)Gal(b1-4)GlcNAc(b1-3)Gal(b1-4)GlcNAc(b1-3)Gal(b1-4)GlcNAc(b1-2)[GlcNAc(b1-3)Gal(b1-4)GlcNAc(b1-3)Gal(b1-4)GlcNAc(b1-3)Gal(b1-4)GlcNAc(b1-6)]Man(a1-6)[GlcNAc(b1-3)Gal(b1-4)GlcNAc(b1-3)Gal(b1-4)GlcNAc(b1-3)Gal(b1-4)GlcNAc(b1-2)Man(a1-3)]Man(b1-4)GlcNAc(b1-4)[Fuc(a1-6)]GlcNAc
Outline: as §1

[13] = biological target: GlcNAc(b1-3)Gal(b1-4)GlcNAc(b1-3)Gal(b1-4)GlcNAc(b1-3)Gal(b1-4)GlcNAc(b1-3)Gal(b1-4)GlcNAc(b1-2)Man(a1-3)[GlcNAc(b1-3)Gal(b1-4)GlcNAc(b1-3)Gal(b1-4)GlcNAc(b1-3)Gal(b1-4)GlcNAc(b1-3)Gal(b1-4)GlcNAc(b1-2)Man(a1-6)]Man(b1-4)GlcNAc(b1-4)GlcNAc
Outline: as §1

[14] = biological target: GlcNAc(b1-3)Gal(b1-4)GlcNAc(b1-3)Gal(b1-4)GlcNAc(b1-3)Gal(b1-4)GlcNAc(b1-3)Gal(b1-4)GlcNAc(b1-2)Man(a1-3)[GlcNAc(b1-3)Gal(b1-4)GlcNAc(b1-3)Gal(b1-4)GlcNAc(b1-3)Gal(b1-4)GlcNAc(b1-3)Gal(b1-4)GlcNAc(b1-2)Man(a1-6)]Man(b1-4)GlcNAc(b1-4)[Fuc(a1-6)]GlcNAc
Outline: as §1

[15] = biological target: GlcNAc(b1-3)Gal(b1-4)GlcNAc(b1-3)Gal(b1-4)GlcNAc(b1-3)Gal(b1-4)GlcNAc(b1-3)Gal(b1-4)GlcNAc(b1-2)[GlcNAc(b1-3)Gal(b1-4)GlcNAc(b1-3)Gal(b1-4)GlcNAc(b1-3)Gal(b1-4)GlcNAc(b1-3)Gal(b1-4)GlcNAc(b1-6)]Man(a1-6)[GlcNAc(b1-3)Gal(b1-4)GlcNAc(b1-3)Gal(b1-4)GlcNAc(b1-3)Gal(b1-4)GlcNAc(b1-3)Gal(b1-4)GlcNAc(b1-2)Man(a1-3)]Man(b1-4)GlcNAc(b1-4)[Fuc(a1-6)]GlcNAc
Outline: as §1

[16] = biological target: GlcNAc(b1-3)Gal(b1-4)GlcNAc(b1-3)Gal(b1-4)GlcNAc(b1-3)GalNAc
Outline: as §1

[17] = biological target: GlcNAc(b1-3)Gal(b1-4)GlcNAc(b1-3)GalNAc
Outline: as §1

[18] = biological target: GlcNAc(b1-3)Gal(b1-4)GlcNAc(b1-3)[GlcNAc(b1-3)Gal(b1-4)GlcNAc(b1-3)]GalNAc
Outline: as §1

[19] = biological target: GlcNAc(b1-3)Gal(b1-4)GlcNAc(b1-6)[Gal(b1-3)]GalNAc
Outline: as §1

[20] = biological target: GlcNAc(b1-3)Gal(b1-4)GlcNAc(b1-6)[GlcNAc(b1-3)Gal(b1-3)]GalNAc
Outline: as §1

[21] = biological target: GlcNAc(b1-3)Gal(b1-4)GlcNAc(b1-6)[GlcNAc(b1-3)]Gal(b1-4)GlcNAc
Outline: as §1

GlcNAc(b1-3)GalNAc = biological target: GlcNAc(b1-3)GalNAc
Outline: as §1

GlcNAc(b1-3)Man = biological target: GlcNAc(b1-3)Man
Outline: as §1

[22] = biological target: GlcNAc(b1-3)[GlcNAc(b1-4)][GlcNAc(b1-6)]GlcNAc
Outline: as §1

[23] = biological target: GlcNAc(b1-3)[GlcNAc(b1-6)]Gal(b1-4)GlcNAc
Outline: as §1

[24] = biological target: GlcNAc(b1-3)[GlcNAc(b1-6)]GalNAc
Outline: as §1

[25] = biological target: GlcNAc(b1-4)Gal(b1-4)GlcNAc
Outline: as §1

GlcNAc(b1-4)GlcNAc = biological target: GlcNAc(b1-4)GlcNAc
Outline: as §1

[26] = biological target: GlcNAc(b1-4)GlcNAc(b1-4)GlcNAc
Outline: as §1

[27] = biological target: GlcNAc(b1-4)GlcNAc(b1-4)GlcNAc(b1-4)GlcNAc(b1-4)GlcNAc
Outline: as §1

[28] = biological target: GlcNAc(b1-4)GlcNAc(b1-4)GlcNAc(b1-4)GlcNAc(b1-4)GlcNAc(b1-4)GlcNAc
Outline: as §1

[29] = biological target: GlcNAc(b1-4)[GlcNAc(b1-6)]GalNAc
Outline: as §1

[30] = biological target: GlcNAc(b1-6)Gal(b1-4)GlcNAc
Outline: as §1

GlcNAc(b1-6)GalNAc = biological target: GlcNAc(b1-6)GalNAc
Outline: as §1

[31] = biological target: GlcNAc6S(b1-3)Gal(b1-4)GlcNAc
Outline: as §1

Kdn(a2-3)Gal(b1-3)GalNAc = biological target: Kdn(a2-3)Gal(b1-3)GalNAc
Outline: as §1

Kdn(a2-3)Gal(b1-3)GlcNAc = biological target: Kdn(a2-3)Gal(b1-3)GlcNAc
Outline: as §1

Kdn(a2-3)Gal(b1-4)Glc = biological target: Kdn(a2-3)Gal(b1-4)Glc
Outline: as §1

Kdn(a2-3)Gal(b1-4)GlcNAc = biological target: Kdn(a2-3)Gal(b1-4)GlcNAc
Outline: as §1

[32] = biological target: Kdn(a2-3)Gal(b1-4)[Fuc(a1-3)]GlcNAc
Outline: as §1

Kdn(a2-6)Gal(b1-4)GlcNAc = biological target: Kdn(a2-6)Gal(b1-4)GlcNAc
Outline: as §1

[33] = biological target: Man(a1-2)Man(a1-2)Man(a1-3)Man
Outline: as §1

[34] = biological target: Man(a1-2)Man(a1-2)Man(a1-6)[Man(a1-3)]Man
Outline: as §1

Man(a1-2)Man(a1-3)Man = biological target: Man(a1-2)Man(a1-3)Man
Outline: as §1

B1: a L Fucosidase (Thermotoga maritima) (protein)
chain: MASMKPRYKPDWESLREHTVPKWFDKAKFGIFIHWGIYSVPGWATPTGELGKVPMDAWFFQNPYAEWYENSLRIKESPTWEYHVKTYGENFEYEKFADLFTAEKWDPQEWADLFKKAGAKYVIPTTKHHDGFCLWGTKYTDFNSVKRGPKRDLVGDLAKAVREAGLRFGVYYSGGLDWRFTTEPIRYPEDLSYIRPNTYEYADYAYKQVMELVDLYLPDVLWNNMGWPEKGKEDLKYLFAYYYNKHPEGSVNDRWGVPHWDFKTAEYHVNYPGDLPGYKWEFTRGIGLSFGYNRNEGPEHMLSVEQLVYTLVDVVSKGGNLLLNVGPKGDGTIPDLQKERLLGLGEWLRKYGDAIYGTSVWERCCAKTEDGTEIRFTRKCNRIFVIFLGIPTGEKIVIEDLNLSAGTVRHFLTGERLSFKNVGKNLEITVPKKLLETDSITLVLEAVEE
glycan array binding signal (z-score) [1]: 0.146 | glycan array binding signal (z-score) (GlcNAc(b1-3)Gal(b1-4)Glc): -0.248 | glycan array binding signal (z-score) [2]: -0.35 | glycan array binding signal (z-score) [3]: 0.512 | glycan array binding signal (z-score) [4]: 1.23 | glycan array binding signal (z-score) [5]: -0.595 | glycan array binding signal (z-score) [6]: -0.67 | glycan array binding signal (z-score) [7]: 0.079 | glycan array binding signal (z-score) [8]: 1.68 | glycan array binding signal (z-score) [9]: 0.296 | glycan array binding signal (z-score) [10]: 0.301 | glycan array binding signal (z-score) [11]: 3.94 | glycan array binding signal (z-score) [12]: 0.033 | glycan array binding signal (z-score) [13]: -0.204 | glycan array binding signal (z-score) [14]: 0.076 | glycan array binding signal (z-score) [15]: 1.08 | glycan array binding signal (z-score) [16]: 0.501 | glycan array binding signal (z-score) [17]: -0.588 | glycan array binding signal (z-score) [18]: -0.682 | glycan array binding signal (z-score) [19]: -0.942 | glycan array binding signal (z-score) [20]: 1.65 | glycan array binding signal (z-score) [21]: 0.033 | glycan array binding signal (z-score) (GlcNAc(b1-3)GalNAc): -0.409 | glycan array binding signal (z-score) (GlcNAc(b1-3)Man): 0.794 | glycan array binding signal (z-score) [22]: -0.885 | glycan array binding signal (z-score) [23]: -0.122 | glycan array binding signal (z-score) [24]: -0.44 | glycan array binding signal (z-score) [25]: 0.482 | glycan array binding signal (z-score) (GlcNAc(b1-4)GlcNAc): -0.204 | glycan array binding signal (z-score) [26]: -0.381 | glycan array binding signal (z-score) [27]: 0.509 | glycan array binding signal (z-score) [28]: -0.515 | glycan array binding signal (z-score) [29]: -0.289 | glycan array binding signal (z-score) [30]: -0.598 | glycan array binding signal (z-score) (GlcNAc(b1-6)GalNAc): -0.336 | glycan array binding signal (z-score) [31]: 1.52 | glycan array binding signal (z-score) (Kdn(a2-3)Gal(b1-3)GalNAc): 1.77 | glycan array binding signal (z-score) (Kdn(a2-3)Gal(b1-3)GlcNAc): -0.53 | glycan array binding signal (z-score) (Kdn(a2-3)Gal(b1-4)Glc): 0.508 | glycan array binding signal (z-score) (Kdn(a2-3)Gal(b1-4)GlcNAc): 0.012 | glycan array binding signal (z-score) [32]: 0.051 | glycan array binding signal (z-score) (Kdn(a2-6)Gal(b1-4)GlcNAc): -0.096 | glycan array binding signal (z-score) [33]: 1.06 | glycan array binding signal (z-score) [34]: -0.125 | glycan array binding signal (z-score) (Man(a1-2)Man(a1-3)Man): -0.9
